Data from US9056096B2, “Hyaluronic acid decomposition-promoting factor and inhibitor thereof” (Kao Corporation, priority 2010, dated 2015).
At least one compound was matched to its structure with a doubt left.

Test system: KIAA1199/HEK293 cells
Assay: Inhibitor experiment: [3H]HA decomposition in HEK293 cells stably expressing KIAA1199
Assay type: cell-based, human
Settings: preliminary treatment with inhibitor 3 hours, then 6 hours with [3H]HA
Description: Cells were cultured in a medium containing [^3H]HA (40,000 dpm/mL) to confluent. […] The medium was eluted with 0.5% NaCl at 0.65 mL/min, and fractions (each 2.55 mL) were collected. The radioactivity of each fraction was measured.
Cells were cultured in a medium containing G418, and stable transformants were selected.
Cells were incubated for 3 hours with an inhibitor at a predetermined concentration and then incubated for 6 hours with [^3H]HA in the presence of the inhibitor.
In order to investigate the hyaluronic acid decomposition mechanism by the mediation of KIAA1199, HEK293 cells (KIAA1199/HEK293), in which KIAA1199 is consistently expressed, were established.

Question: With `CC(=O)N(O)CCCCCNC(=O)CCC(=O)N(O)CCCCCNC(=O)CCC(=O)N(O)CCCCCN` [deferoxamine] as the compound, how does the “decomposition of hyaluronic acid in KIAA1199/HEK293 cells” value read?
Answer: inhibited
